This assay can be described thus: qHTS for identification of novel therapeutic agents for treatment of microphthalmiaassociated transcription factor (MiT) renal cell carcinoma (RCC) (AID 1963991). To be noted: CellTiter-Glo, 48 h; for z-score: stronger effect = lower value. In a few lines:
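Viability of three TFE3-fusion renal carcinoma lines measured by CellTiter-Glo after 48 h treatment with each of 1912 compounds at 11 concentrations. Responses scaled between DMSO (100%) and empty wells (0%) before curve fitting.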

The mark [1] stands for this setting: TFE3-RCC UOK109 viability, measured here: UOK109 Z-AUC.
The mark [2] stands for this setting: TFE3-RCC viability, measured here: UOK124 Z-AUC.
[3] abbreviates: TFE3-RCC viability, measured here: UOK124 cell viability.
Where [4] appears, read: TFE3-RCC viability, measured here: UOK145 Z-AUC.
Where [5] appears, read: TFE3-RCC viability, measured here: UOK145 cell viability.

The other results are listed elsewhere or left out. Shown are side measurements of this screen, not its main read-out; they come without a call. Most of these compounds were active or inconclusive in the main read-out, so they are no random draw. Potencies come from curve fits of mixed quality, noted in brackets.

For `Nc1nc2[nH]cc(CCc3ccc(C(=O)N[C@@H](CCC(=O)O)C(=O)O)cc3)c2c(=O)[nH]1`, the z-score runs as follows: under setting [1], 0.597; under setting [2], -2.07; under setting [4], -0.844. Moreover, the AC50 under setting [3] is 0.118 µM [falling, full curve] and the AC50 under setting [5] was 1.05 µM [falling, full curve].

In the case of `CN[C@@H]1CN(c2ccc3c(=O)c(C(=O)O)cn(-c4nccs4)c3n2)C[C@@H]1OC`, the z-score was found to be 0.759 under setting [1], 1.78 under setting [2] and 0.984 under setting [4]. Further, the concentration at half-maximal activity (AC50) under setting [3] was 2.04 µM [falling, partial curve] and the AC50 under setting [5] was 12.9 µM [falling, partial curve].

Compound `CO[C@H]1C[C@@H]2CC[C@@H](C)[C@@](O)(O2)C(=O)C(=O)N2CCCC[C@@H]2C(=O)O[C@H]([C@H](C)C[C@@H]2CC[C@H](OC(=O)C(C)(CO)CO)[C@H](OC)C2)CC(=O)[C@H](C)C=C(C)[C@@H](O)[C@@H](OC)C(=O)[C@H](C)C[C@H](C)C=CC=CC=C1C` returned a z-score under setting [1] of -0.0641, a z-score under setting [2] of 0.132 and a z-score under setting [4] of -0.791. The AC50 was 33.2 µM [falling, single point] under setting [3] and 23.5 µM [falling, partial curve, poor fit] under setting [5].

With `CC[C@]12C=CCN3CC[C@@]4(c5cc([C@@]6(C(=O)OC)C[C@H]7C[C@@H](C(C)(F)F)CN(Cc8c6[nH]c6ccccc86)C7)c(OC)cc5N(C)[C@H]4[C@@](O)(C(=O)OC)[C@H]1OC(C)=O)[C@@H]32`, the z-score is -0.669 under setting [1], -1.71 under setting [2] and -1.71 under setting [4]. Also, the AC50 reads like this: under setting [3], 0.0372 µM [falling, full curve]; under setting [5], 0.0833 µM [falling, full curve].

As for `COc1ccc(Cn2ccc3ccc(C(=O)NO)cc32)cc1`, the z-score under setting [1] was found to be 0.0219, the z-score under setting [2] is -1.1 and the z-score under setting [4] is 0.278. The AC50 runs as follows: under setting [3], 6.62 µM [falling, single point]; under setting [5], 16.6 µM [falling, partial curve].

With `CC(C)(N)C(=O)N[C@H](COCc1ccccc1)C(=O)N1CCC2(CC1)CN(S(C)(=O)=O)c1ccccc12`, the z-score runs as follows: under setting [1], 0.666; under setting [2], 0.697; under setting [4], 0.48. Besides, the AC50 is, setting by setting: under setting [3], 23.5 µM [falling, partial curve]; under setting [5], 23.5 µM [falling, partial curve, poor fit].

As for `COCCOc1nc(-c2ccc(Cl)c(Cl)c2)n(-c2ccc(NC(=O)CCl)cc2)n1`, the z-score under setting [1] worked out at 0.127, the z-score under setting [2] was determined as 0.569 and the z-score under setting [4] is 0.373. Further, the AC50 by setting is: under setting [3], 8.33 µM [falling, partial curve]; under setting [5], 29.6 µM [falling, single point].

In the case of `COc1ccc(-c2ccc3c(N4CCOCC4)nc(N4C[C@@H](C)O[C@@H](C)C4)nc3n2)cc1CO`, the z-score runs as follows: under setting [1], -0.615; under setting [2], -0.739; under setting [4], -0.668. In addition, the AC50 is 1.48 µM [falling, full curve] under setting [3] and 1.87 µM [falling, full curve] under setting [5].

In the case of `Cn1cnc(=N)c2[nH]cnc21`, the z-score was -0.191 under setting [1], 0.336 under setting [2] and -0.48 under setting [4]. Besides, the AC50 is, setting by setting: under setting [3], 2.96 µM [falling, full curve]; under setting [5], 5.9 µM [falling, partial curve].

For the compound `COc1ccc(-c2oc3cc(OC)ccc3c2C(=O)c2ccc(C#N)cc2)cc1`, the z-score runs as follows: under setting [1], 0.345; under setting [2], 0.229; under setting [4], 0.202. Moreover, the AC50 under setting [3] was 4.18 µM [falling, full curve, poor fit] and the AC50 under setting [5] is 11.8 µM [falling, partial curve].

For the compound `CC(C)Oc1ccc(C(=O)N[C@H](CNC(=O)CN(C)C)Cc2ccc(-c3cn4cccc([C@H](C)O)c4n3)cc2)cc1Cl`, the z-score was 0.0146 under setting [1], 0.139 under setting [2] and -0.57 under setting [4]. Besides, the AC50 is 16.6 µM [falling, partial curve, poor fit] under setting [3] and 0.833 µM [falling, full curve] under setting [5].

For `Cc1ccc(NC(=O)Nc2cc(C(F)(F)F)ccc2F)cc1Nc1ccc2c(c1)NC(=O)C2=Cc1ccc[nH]1`, the z-score is 0.37 under setting [1], -0.242 under setting [2] and -0.23 under setting [4]. Also, the AC50 is 20.9 µM [falling, partial curve] under setting [3] and 20.9 µM [falling, partial curve] under setting [5].

Consider `C=C1C(=CC=C2CCCC3(C)[C@@H]([C@H](C)C=CC=CC(O)(CC)CC)CC[C@@H]23)C[C@@H](O)C[C@@H]1O` (stereo not given in full), for which the z-score runs as follows: under setting [1], -1.3; under setting [2], -0.156; under setting [4], 0.257. In addition, the AC50 runs as follows: under setting [3], 23.5 µM [falling, single point]; under setting [5], 20.9 µM [falling, partial curve].

For `CCC(=C(c1ccc(O)cc1)c1ccc(OCCNC)cc1)c1ccccc1`, the z-score runs as follows: under setting [1], -0.499; under setting [2], -0.575; under setting [4], 0.187. The AC50 is, setting by setting: under setting [3], 23.5 µM [falling, partial curve]; under setting [5], 23.5 µM [falling, partial curve].

As to `CS(=O)(=O)Oc1ccc2c(NC(N)=O)c(C(=O)c3ccc(Cl)cc3Cl)oc2c1`, the z-score by setting is: under setting [1], -0.644; under setting [2], -0.0468; under setting [4], 0.131. Further, the AC50 runs as follows: under setting [3], 2.35 µM [falling, full curve]; under setting [5], 16.6 µM [falling, partial curve].

Regarding `CC[C@H](NC(=O)[C@H](C)NC)C(=O)N1C[C@@H](O)C[C@H]1Cc1c(-c2[nH]c3cc(F)ccc3c2C[C@H]2C[C@H](O)CN2C(=O)[C@H](CC)NC(=O)[C@H](C)NC)[nH]c2cc(F)ccc12`, the z-score by setting is: under setting [1], -1.45; under setting [2], -0.73; under setting [4], -0.992. Also, the AC50 by setting is: under setting [3], 1.87 µM [falling, full curve]; under setting [5], 2.09 µM [falling, full curve].

With `CC[C@@]1([C@@H]2O[C@@H]([C@H]3O[C@@](O)(CO)[C@H](C)C[C@H]3C)C[C@H]2C)CC[C@H]([C@]2(C)CC[C@]3(C[C@H](O)[C@@H](C)[C@@H]([C@@H](C)[C@@H](OC)[C@H](C)C(=O)O)O3)O2)O1`, the z-score under setting [1] is 0.362, the z-score under setting [2] is -0.718 and the z-score under setting [4] worked out at 0.372. For the same compound, the AC50 runs as follows: under setting [3], 0.645 µM [falling, full curve]; under setting [5], 0.257 µM [falling, full curve].

The term AC50 denotes the concentration giving half of the maximal activity seen.

Values taken from PubChem BioAssay (NCATS).
